Results are given in words; binding and its absence hold for the method and conditions named. In cells and extracts the contact can be indirect. Some binding calls cover weakened binding; strength is not graded here.

This experiment deals with T1, CTC1 (largest subunit of human CTC1-STN1-TEN1, CST) (human) (UniProt Q2NKJ3).
T1 sequence: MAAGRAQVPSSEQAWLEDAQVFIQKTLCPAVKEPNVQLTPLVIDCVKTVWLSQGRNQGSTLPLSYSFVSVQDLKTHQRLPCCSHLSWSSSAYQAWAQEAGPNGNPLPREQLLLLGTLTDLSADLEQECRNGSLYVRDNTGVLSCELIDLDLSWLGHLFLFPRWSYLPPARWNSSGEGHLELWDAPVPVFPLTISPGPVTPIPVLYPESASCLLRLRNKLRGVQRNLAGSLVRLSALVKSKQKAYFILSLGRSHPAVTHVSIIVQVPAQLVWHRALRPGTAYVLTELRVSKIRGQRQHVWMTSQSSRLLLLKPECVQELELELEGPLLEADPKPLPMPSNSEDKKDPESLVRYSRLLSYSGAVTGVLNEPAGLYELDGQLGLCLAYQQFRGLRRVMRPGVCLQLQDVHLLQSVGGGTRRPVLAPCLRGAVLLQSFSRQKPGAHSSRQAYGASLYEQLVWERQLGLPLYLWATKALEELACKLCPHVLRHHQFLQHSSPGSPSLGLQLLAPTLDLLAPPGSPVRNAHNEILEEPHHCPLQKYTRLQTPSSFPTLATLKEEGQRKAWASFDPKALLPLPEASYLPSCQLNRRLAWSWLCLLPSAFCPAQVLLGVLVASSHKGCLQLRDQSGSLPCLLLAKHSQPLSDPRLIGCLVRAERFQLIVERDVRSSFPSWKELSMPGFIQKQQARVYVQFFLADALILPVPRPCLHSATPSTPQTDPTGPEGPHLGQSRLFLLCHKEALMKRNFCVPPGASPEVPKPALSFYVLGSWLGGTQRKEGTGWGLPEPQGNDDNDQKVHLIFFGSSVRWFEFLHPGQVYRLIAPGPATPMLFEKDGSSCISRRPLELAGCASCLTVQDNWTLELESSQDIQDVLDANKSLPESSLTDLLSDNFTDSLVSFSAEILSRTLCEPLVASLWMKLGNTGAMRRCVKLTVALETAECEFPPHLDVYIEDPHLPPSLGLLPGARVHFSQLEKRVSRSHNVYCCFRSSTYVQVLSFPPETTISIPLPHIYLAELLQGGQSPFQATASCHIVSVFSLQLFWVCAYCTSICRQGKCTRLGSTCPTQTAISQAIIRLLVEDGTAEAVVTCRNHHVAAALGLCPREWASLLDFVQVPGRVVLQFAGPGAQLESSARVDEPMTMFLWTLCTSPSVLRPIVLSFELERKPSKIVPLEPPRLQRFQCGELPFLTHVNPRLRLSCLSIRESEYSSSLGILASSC
The experiment is described as follows: pull-down; tandem affinity co-purification from lysate of Tni cells co-expressing the three subunits: Ni-NTA agarose (6xHis on STN1 and TEN1), then anti-FLAG resin (2xFLAG on CTC1), eluted with 3xFLAG peptide; 300 mM NaCl, 15 mM imidazole pH 8.0, 50 mM HEPES pH 7.4, 1 mM DTT, 4°C; checked by SDS-PAGE.

B1: STN1 (medium subunit of human CTC1-STN1-TEN1, CST) (protein, UniProt Q9H668 1-368)
chain: MQPGSSRCEEETPSLLWGLDPVFLAFAKLYIRDILDMKESRQVPGVFLYNGHPIKQVDVLGTVIGVRERDAFYSYGVDDSTGVINCICWKKLNTESVSAAPSAARELSLTSQLKKLQETIEQKTKIEIGDTIRVRGSIRTYREEREIHATTYYKVDDPVWNIQIARMLELPTIYRKVYDQPFHSSALEKEEALSNPGALDLPSLTSLLSEKAKEFLMENRVQSFYQQELEMVESLLSLANQPVIHSASSDQVNFKKDTTSKAIHSIFKNAIQLLQEKGLVFQKDDGFDNLYYVTREDKDLHRKIHRIIQQDCQKPNHMEKGCHFLHILACARLSIRPGLSEAVLQQVLELLEDQSDIVSTMEHYYTAF
For the molecule B1, the binding entry is recorded as “binds”.

B2: TEN1 (small subunit of human CTC1-STN1-TEN1, CST) (protein, UniProt Q86WV5 1-123)
chain: MMLPKPGTYYLPWEVSAGQVPDGSTLRTFGRLCLYDMIQSRVTLMAQHGSDQHQVLVCTKLVEPFHAQVGSLYIVLGELQHQQDRGSVVKARVLTCVEGMNLPLLEQAIREQRLYKQERGGSQ
Consider B2, for which the binding entry is “binds”.

The values are drawn from article PMC10250233.
